# Measured values from PubChem BioAssay AID2685 (National Center for Advancing Translational Sciences (NCATS), 2010).
# Some of the results follow. Further columns of the screen follow, without active or inactive calls. Compounds called inactive in the main read-out are mostly missing here. Words in brackets tell the shape of the fitted curve; partial curves, single points and poor fits give uncertain potencies.
# Assay: qHTS Assay for Lipid Storage Modulators in Drosophila S3 Cells;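 for cell number change: cells counted by Cell Tracker Red CMTPX staining in the red channel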
# Settings: BODIPY lipid droplet fluorescence, 18-24 h; for cell number change: measured here: cell count max response, cells fed with added oleic acid
# In short: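 Drosophila S3 cells loaded with oleic acid (400 uM, as added) and compounds at several concentrations; lipid droplets imaged by 488-nm laser-scanning cytometry, 500–530 nm intensity and object ratio to cell channel. Percent activity normalized to 20 uM Triacsin C.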
# [1] = measured here: lipid fluorescence (Fed channel) AC50, cells fed with added oleic acid
# [2] = measured here: cell number channel AC50, cells fed with added oleic acid
SMILES,cell number change [%],AC50 [1],AC50 [2]
CCOc1ccc(/C=C(\C#N)C(=O)Nc2ccccn2)cc1,-12.6,"18.4 µM [falling, single point]",–
CCN1CCN(CCCN(Cc2ccco2)C(=S)Nc2ccc(Cl)c(C)c2)CC1,-9.33,–,–
COc1ccccc1C(=O)N/N=C(\C)CC(=O)Nc1ccccn1,5.86,–,–
COc1cccc(N2CC(C(=O)Nc3nnc(SCC(=O)NCC4CCCO4)s3)CC2=O)c1 (stereo not given),-40.8,"0.517 µM [falling, full curve]","0.58 µM [falling, full curve]"
CC1CCCCC1NC(=O)Cn1nc(-c2ccccc2)ccc1=O (stereo not given),–,"6.51 µM [falling, single point]",–
O=C(O)C1CCN(C(=O)COc2ccc3c4c(c(=O)oc3c2)CCC4)CC1,11.9,"0.0058 µM [falling, full curve, poor fit]",–
N=C1C(c2nc(-c3ccc(F)cc3)cs2)=C(O)CN1CCCN1CCOCC1,-21.3,"29.1 µM [falling, single point]",–
COc1ccc2[nH]c3c(c2c1)CCn1c-3nc2sc(C(=O)Nc3ccccc3)c(C)c2c1=O,–,"6.51 µM [rising, partial curve]","6.51 µM [rising, single point]"
Cc1ccc(NC(=O)CSc2nc3ccccc3c3nc(CCc4c(C)n[nH]c4C)nn23)cc1F,7.35,"20.6 µM [falling, single point]","0.116 µM [rising, full curve]"
NC(=O)c1ccc(CN2CCC(Cc3ccccc3)CC2)cc1,139,–,–
C=CCc1cccc2cc(C(=O)N3CCOCC3)c(=O)oc12,26.1,"6.51 µM [rising, single point]",–
CC(=O)Nc1ccc(S(=O)(=O)N2CCn3cccc3C2C)cc1 (stereo not given),-13.6,"0.058 µM [falling, full curve, poor fit]","2.59 µM [falling, partial curve]"
COc1ccc(N2CCN(C3CCN(S(=O)(=O)c4ccc(F)cc4)CC3)CC2)cc1,-0.288,"3.66 µM [falling, partial curve, poor fit]",–
CCCCOc1nc2c(c(=O)n(C)c(=O)n2C)n1C,-9.58,–,–
CCOC(=O)N1CCc2c(sc(N)c2C#N)C1,15.6,"0.259 µM [rising, full curve, poor fit]",–
O=C(NCC(c1ccco1)N1CCCCC1)c1ccc(OCc2ccccc2)cc1 (stereo not given),6.85,–,"4.61 µM [falling, single point]"
COCCNC(=O)C(OC(=O)c1ccco1)c1ccccc1Cl (stereo not given),-7.46,–,–
N#Cc1c(/N=C/c2cccs2)sc2c1CCCCC2,-44.1,–,"20.6 µM [falling, partial curve, poor fit]"
N#CCC(=O)Nc1ccc(C(=O)OCc2ccccc2Oc2ccccc2)cc1,-28.6,–,–
c1ccc(-c2nc(-c3ccco3)cs2)nc1,-23.1,"3.66 µM [rising, single point]",–
Cc1cc(C)c(C#N)c(N2CCN(S(=O)(=O)Cc3ccccc3)CC2)n1,51,–,"12.6 µM [rising, single point]"
COc1ccc(OCC(=O)Nc2ccc(N3CCOCC3)cc2)c([N+](=O)[O-])c1,17.6,–,"0.326 µM [rising, full curve, poor fit]"
Cc1nn(Cc2ccccc2)c(C)c1NC(=O)CCC(=O)O,-71.4,"5.8 µM [falling, partial curve]","32.6 µM [falling, single point]"
O=C1COc2ccc(S(=O)(=O)N3CCCC3)cc2N1,4.78,"6.51 µM [rising, single point]",–
CCOc1cc(N2CCOCC2)c(OCC)cc1NC(=O)CN1C(=O)N(C)C2(CCCCC2)C1=O,12.7,–,–
CN(C)CCNc1nc(-c2ccccc2)c2c(c1C#N)CC(C)(C)OC2,–,"6.51 µM [rising, single point]","0.146 µM [rising, full curve, poor fit]"
COc1n[nH]c(C(=O)Nc2cc(Cl)ccc2Cl)c1[N+](=O)[O-],-47.2,"23.1 µM [falling, single point]","23.1 µM [falling, single point]"
Cc1ccc(C2=[N+]([O-])C3(CCCCC/C3=N\NC(N)=O)N(O)C2(C)C)o1 (stereo not given),-47.7,"5.8 µM [falling, full curve]","5.8 µM [falling, full curve]"
COC(=O)CCn1nnc(-c2ccc(C(C)C)cc2)n1,–,"6.51 µM [falling, single point]",–

# Looked up by structure from the list above (2):
SMILES,cell number change [%],AC50 [1],AC50 [2]
Cc1ccc(NC(=O)CSc2nc3ccccc3c3nc(CCc4c(C)n[nH]c4C)nn23)cc1F,7.35,"20.6 µM [falling, single point]","0.116 µM [rising, full curve]"
Cc1ccc(C2=[N+]([O-])C3(CCCCC/C3=N\NC(N)=O)N(O)C2(C)C)o1 (stereo not given),-47.7,"5.8 µM [falling, full curve]","5.8 µM [falling, full curve]"
